In the supplement of paper PMC10849652:
Some of the results follow.

Chains of the proteins cited; added tags and fusions are not shown. Lines headed by an entry give the natural chain unless they say otherwise; changes in a name come on top.
UniProt P07919: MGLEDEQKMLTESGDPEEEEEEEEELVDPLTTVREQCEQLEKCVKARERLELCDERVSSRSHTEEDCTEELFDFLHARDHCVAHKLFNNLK
UniProt P06132: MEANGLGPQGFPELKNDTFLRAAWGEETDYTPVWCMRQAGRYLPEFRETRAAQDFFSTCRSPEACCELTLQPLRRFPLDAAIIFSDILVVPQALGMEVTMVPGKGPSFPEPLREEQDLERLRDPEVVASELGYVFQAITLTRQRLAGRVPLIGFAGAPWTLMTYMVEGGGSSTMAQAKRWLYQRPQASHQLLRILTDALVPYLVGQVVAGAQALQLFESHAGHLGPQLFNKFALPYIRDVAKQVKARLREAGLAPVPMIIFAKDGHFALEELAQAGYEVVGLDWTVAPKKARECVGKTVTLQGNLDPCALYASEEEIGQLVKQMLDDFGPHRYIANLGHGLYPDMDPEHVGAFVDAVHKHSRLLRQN
UniProt Q9Y5T5, whole entry, looked up: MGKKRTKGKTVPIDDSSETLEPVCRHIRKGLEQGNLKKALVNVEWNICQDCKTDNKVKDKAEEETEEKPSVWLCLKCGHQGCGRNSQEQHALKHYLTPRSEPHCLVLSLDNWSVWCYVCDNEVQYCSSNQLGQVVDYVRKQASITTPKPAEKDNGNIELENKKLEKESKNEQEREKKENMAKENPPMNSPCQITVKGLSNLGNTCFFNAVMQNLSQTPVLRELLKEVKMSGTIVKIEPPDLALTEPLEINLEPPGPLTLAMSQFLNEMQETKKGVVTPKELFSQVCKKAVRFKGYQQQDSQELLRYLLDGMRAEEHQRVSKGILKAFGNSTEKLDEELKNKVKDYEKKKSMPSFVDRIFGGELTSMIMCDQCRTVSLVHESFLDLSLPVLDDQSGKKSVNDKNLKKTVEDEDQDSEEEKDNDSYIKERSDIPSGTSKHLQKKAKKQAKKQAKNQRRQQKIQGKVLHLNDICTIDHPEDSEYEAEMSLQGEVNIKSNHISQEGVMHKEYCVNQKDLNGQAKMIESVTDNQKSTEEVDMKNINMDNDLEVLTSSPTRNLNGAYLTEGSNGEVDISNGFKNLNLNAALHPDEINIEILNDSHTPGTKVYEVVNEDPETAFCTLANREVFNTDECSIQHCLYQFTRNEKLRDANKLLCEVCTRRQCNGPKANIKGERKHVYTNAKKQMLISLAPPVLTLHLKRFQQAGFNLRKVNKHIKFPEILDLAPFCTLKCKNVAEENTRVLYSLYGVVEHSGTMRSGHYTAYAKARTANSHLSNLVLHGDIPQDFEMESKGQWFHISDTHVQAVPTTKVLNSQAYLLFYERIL
UniProt Q96S82: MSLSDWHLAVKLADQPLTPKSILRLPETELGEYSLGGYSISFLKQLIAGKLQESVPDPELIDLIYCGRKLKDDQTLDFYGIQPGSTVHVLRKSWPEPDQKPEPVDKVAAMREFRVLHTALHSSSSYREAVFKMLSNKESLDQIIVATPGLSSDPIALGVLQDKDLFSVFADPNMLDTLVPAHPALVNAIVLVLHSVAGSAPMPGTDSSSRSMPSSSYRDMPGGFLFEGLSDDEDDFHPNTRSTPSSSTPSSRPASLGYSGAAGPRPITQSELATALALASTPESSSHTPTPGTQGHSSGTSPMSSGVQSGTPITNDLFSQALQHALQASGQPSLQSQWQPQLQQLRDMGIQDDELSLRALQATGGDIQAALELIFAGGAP
UniProt O94966: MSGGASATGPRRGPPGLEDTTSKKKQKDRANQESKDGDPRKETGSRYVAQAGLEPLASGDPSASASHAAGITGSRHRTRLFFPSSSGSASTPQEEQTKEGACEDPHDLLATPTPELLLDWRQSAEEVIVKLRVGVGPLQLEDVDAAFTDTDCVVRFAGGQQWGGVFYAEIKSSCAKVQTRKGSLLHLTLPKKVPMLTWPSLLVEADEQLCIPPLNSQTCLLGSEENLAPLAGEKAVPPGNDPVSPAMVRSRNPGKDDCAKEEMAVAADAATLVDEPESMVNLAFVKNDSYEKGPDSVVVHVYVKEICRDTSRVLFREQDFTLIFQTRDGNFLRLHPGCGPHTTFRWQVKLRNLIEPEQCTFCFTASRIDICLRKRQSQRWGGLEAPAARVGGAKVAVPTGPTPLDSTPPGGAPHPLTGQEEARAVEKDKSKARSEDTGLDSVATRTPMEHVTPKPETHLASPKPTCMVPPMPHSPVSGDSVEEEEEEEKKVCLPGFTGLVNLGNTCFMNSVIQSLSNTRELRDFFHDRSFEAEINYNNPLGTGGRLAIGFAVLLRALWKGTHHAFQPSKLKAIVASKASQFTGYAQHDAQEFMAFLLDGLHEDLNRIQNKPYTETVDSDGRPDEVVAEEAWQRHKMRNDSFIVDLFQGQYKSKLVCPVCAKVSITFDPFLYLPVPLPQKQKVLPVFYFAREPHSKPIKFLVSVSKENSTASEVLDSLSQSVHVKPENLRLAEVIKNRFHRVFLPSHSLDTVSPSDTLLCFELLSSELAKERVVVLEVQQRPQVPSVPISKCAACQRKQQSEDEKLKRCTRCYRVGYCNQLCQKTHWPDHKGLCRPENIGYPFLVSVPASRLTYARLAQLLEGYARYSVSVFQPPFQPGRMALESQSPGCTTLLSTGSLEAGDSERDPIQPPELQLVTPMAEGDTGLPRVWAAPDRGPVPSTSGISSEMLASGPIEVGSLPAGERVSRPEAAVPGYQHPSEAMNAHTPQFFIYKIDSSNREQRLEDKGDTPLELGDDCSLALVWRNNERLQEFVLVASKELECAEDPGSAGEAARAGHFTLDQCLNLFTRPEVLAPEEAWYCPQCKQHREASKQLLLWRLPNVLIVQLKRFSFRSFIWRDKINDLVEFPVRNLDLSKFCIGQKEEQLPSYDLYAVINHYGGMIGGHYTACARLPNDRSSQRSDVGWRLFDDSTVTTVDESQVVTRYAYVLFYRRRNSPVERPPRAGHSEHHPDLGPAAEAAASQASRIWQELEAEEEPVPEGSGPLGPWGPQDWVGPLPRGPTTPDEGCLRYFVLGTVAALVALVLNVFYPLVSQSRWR
UniProt Q15836, whole entry, looked up: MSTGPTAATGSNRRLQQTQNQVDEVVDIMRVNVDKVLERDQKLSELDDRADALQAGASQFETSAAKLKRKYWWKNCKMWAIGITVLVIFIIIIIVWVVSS
UniProt Q969X6: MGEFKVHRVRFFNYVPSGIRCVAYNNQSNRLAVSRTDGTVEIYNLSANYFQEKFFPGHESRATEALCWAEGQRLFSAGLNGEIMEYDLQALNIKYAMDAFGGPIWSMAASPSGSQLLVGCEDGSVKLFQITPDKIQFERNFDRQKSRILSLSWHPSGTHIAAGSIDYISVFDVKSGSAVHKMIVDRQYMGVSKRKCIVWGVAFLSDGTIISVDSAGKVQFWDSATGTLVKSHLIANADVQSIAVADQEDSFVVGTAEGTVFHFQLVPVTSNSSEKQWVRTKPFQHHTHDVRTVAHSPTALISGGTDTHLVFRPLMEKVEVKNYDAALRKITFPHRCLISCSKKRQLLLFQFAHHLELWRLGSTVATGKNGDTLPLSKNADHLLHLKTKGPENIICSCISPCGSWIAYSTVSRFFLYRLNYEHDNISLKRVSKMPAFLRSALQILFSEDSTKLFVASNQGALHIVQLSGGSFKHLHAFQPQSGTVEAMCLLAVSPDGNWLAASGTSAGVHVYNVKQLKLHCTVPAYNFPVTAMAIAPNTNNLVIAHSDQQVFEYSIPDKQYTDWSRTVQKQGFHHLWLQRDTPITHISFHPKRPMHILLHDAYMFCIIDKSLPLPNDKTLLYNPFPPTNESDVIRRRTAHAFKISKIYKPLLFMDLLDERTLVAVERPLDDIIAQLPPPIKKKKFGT
UniProt Q8TEY7: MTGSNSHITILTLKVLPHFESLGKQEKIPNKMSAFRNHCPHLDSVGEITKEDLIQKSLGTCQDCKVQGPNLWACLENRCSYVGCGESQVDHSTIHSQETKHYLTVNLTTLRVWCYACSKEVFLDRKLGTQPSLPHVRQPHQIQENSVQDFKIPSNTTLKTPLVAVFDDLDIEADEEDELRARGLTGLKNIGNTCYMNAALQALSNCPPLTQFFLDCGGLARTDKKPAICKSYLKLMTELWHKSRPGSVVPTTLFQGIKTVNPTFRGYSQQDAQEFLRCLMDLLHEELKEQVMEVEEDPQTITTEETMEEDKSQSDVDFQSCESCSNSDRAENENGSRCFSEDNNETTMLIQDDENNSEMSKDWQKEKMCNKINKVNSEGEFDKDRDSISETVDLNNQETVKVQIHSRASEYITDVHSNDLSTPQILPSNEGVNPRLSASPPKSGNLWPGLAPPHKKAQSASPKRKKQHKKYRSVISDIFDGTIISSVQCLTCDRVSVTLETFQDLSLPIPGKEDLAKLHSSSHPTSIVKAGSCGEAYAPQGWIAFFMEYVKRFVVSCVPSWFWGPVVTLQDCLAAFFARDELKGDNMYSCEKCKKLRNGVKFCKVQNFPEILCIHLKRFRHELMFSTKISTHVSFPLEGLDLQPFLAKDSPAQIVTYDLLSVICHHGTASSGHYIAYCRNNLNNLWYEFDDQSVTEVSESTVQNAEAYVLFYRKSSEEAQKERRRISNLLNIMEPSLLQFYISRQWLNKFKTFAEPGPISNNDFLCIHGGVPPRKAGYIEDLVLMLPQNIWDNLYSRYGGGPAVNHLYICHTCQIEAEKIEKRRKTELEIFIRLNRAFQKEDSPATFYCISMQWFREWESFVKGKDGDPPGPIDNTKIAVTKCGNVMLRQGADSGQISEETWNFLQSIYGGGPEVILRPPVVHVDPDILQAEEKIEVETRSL
UniProt Q9BZM5, whole entry, looked up: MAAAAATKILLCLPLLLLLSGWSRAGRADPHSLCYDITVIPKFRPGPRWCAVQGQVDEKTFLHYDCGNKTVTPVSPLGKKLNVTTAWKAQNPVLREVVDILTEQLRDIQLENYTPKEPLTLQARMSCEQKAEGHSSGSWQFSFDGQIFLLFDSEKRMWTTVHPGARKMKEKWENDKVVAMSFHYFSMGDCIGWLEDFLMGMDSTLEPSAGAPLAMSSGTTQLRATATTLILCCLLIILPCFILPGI
UniProt P17480: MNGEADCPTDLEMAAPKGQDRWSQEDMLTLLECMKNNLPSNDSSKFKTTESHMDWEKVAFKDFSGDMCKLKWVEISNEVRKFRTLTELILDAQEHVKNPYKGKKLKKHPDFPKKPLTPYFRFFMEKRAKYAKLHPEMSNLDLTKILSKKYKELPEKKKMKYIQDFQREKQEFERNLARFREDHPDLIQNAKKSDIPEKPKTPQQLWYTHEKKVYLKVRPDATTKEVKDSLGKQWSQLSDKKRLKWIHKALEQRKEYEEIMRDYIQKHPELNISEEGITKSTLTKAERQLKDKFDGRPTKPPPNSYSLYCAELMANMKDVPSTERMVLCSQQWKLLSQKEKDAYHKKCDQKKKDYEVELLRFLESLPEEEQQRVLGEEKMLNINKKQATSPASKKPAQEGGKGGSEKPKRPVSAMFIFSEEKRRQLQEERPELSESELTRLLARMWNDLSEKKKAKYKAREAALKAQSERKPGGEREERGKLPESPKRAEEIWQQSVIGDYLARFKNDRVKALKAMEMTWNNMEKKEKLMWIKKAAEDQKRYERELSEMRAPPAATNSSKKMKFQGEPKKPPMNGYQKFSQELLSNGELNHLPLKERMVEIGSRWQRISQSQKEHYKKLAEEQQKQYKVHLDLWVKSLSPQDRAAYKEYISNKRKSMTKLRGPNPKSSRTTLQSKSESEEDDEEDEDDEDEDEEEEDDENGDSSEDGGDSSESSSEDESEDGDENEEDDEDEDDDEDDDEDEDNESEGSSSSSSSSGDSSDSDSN
UniProt Q92995: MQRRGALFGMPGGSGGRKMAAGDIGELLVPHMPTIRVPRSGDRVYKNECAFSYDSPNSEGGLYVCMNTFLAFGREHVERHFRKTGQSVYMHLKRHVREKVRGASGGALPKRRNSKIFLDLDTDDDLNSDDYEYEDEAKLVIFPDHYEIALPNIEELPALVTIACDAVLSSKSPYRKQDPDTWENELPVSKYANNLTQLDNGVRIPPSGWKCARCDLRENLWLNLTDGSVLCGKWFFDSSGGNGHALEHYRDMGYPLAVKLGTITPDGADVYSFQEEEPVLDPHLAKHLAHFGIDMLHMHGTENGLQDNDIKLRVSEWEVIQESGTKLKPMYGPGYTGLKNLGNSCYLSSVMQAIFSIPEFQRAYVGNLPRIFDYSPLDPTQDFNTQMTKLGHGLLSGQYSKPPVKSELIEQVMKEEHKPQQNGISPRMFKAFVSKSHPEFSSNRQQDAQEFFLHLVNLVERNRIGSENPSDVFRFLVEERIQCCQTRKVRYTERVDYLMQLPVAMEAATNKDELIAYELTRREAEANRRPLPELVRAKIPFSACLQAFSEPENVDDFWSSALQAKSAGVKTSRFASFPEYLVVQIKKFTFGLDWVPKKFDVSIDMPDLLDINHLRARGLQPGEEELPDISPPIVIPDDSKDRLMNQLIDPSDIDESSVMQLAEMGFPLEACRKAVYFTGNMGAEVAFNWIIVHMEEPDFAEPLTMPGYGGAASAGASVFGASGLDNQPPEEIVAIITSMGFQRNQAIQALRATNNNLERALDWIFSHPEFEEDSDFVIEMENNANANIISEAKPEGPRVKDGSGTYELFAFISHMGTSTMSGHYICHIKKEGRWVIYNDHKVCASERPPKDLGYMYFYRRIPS

Key:
Assay in all cases: log2 fold change, soluble protein after heating vs DMSO (PISA); higher = thermal stabilisation; K562 cells, 10 uM, 30 min; active = over 0.2 and 3.5 SD of the protein, either way, in both replicates (recomputed)
[1] = compound: C1=CC=C(C=C1)[C@H](COC2=CC3=C(C=C2)NC(=O)N3)NC(=O)C4=CC=CN(C4=O)CC5=CC(=C(C=C5)F)F
Summary of the method: (§1)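 Aliquots of K562 cells (2×10^6 cells/mL) treated with 10 μM compound for 30 min were heated for 3 min over 48°C-58°C. After pooling and extraction in PBS with 0.5% NP-40 at 4°C, soluble protein from a 21,000xg, 90 min spin was quantified by TMTpro 16plex LC-MS/MS with channel sums equalised. Thermal stability is expressed against control samples, from duplicates, as a log2 fold change.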

[2] = compound: CC1=C(SC2=C1C(=N[C@H](C3=NN=C(N32)C)CC(=O)N)C4=CC=C(C=C4)Cl)C
Summary of the method: as §1

[3] = compound: CC1=C2C(=CC=C1)N=C(N(C2=O)C3=CC=CC=C3C)CN4C=NC5=C(N=CN=C54)N
Summary of the method: as §1

[4] = compound: Cc1sc2c(c1C)C(c1ccc(Cl)cc1)=N[C@@H](CC(=O)OC(C)(C)C)c1nnc(C)n1-2
Summary of the method: as §1

[5] = compound: c1ccc([C@@H]2C[C@H]2NC2CCNCC2)cc1
Summary of the method: as §1

Measured: log2 fold change

UQCRH (UniProt P07919)
inactive: [1] -0.019 | [2] -0.033 | [3] 0.038 | [4] -0.019 | [5] 0.049

UROD (UniProt P06132)
inactive: [1] 0.02 | [2] 0.022 | [3] 0.02 | [4] -0.015 | [5] -0.016

UBR3 isoform 4 (UniProt Q6ZT12)
inactive: [1] 0.084 | [2] 0.077 | [3] 0.022 | [4] 0.022 | [5] -0.046

USP16 (UniProt Q9Y5T5)
inactive: [1] -0.164 | [2] -0.245 | [3] -0.193 | [4] 0.102 | [5] 0.019

UBL7 (UniProt Q96S82)
inactive: [1] 0.011 | [2] 0.091 | [3] 0.201 | [4] -0.142 | [5] 0.008

USP19 isoform 6 (UniProt O94966)
inactive: [1] -0.008 | [2] 0.07 | [3] 0.037 | [4] -0.05 | [5] 0.002

VAMP3 (UniProt Q15836)
inactive: [1] 0.077 | [2] -0.286 | [4] 0.019 | [5] 0

UTP4 (UniProt Q969X6)
inactive: [1] 0.009 | [2] 0.039 | [3] -0.044 | [4] 0.004 | [5] -0.021

2 neighbouring entries out of the list so far:
USP16 (UniProt Q9Y5T5)
inactive: [1] -0.164 | [2] -0.245 | [3] -0.193 | [4] 0.102 | [5] 0.019

UBL7 (UniProt Q96S82)
inactive: [1] 0.011 | [2] 0.091 | [3] 0.201 | [4] -0.142 | [5] 0.008

(next part)

USP33 (UniProt Q8TEY7)
inactive: [3] 0.079 | [4] -0.067

ULBP2 (UniProt Q9BZM5)
inactive: [2] 0.002 | [4] -0.139 | [5] 0.082

UBTF (UniProt P17480)
inactive: [1] -0.206 | [2] 0.036 | [5] -0.023

USP13 (UniProt Q92995)
inactive: [1] -0.02 | [2] -0.009 | [3] 0.076 | [4] 0.005 | [5] -0.048
